This note sets out measurements from the supplement of paper PMC4604168 (melanoma cell lines).

SMILES strings stand for the structures. This is one part of the list. Single values are uncertain, as repeats are few or missing.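 Cells were imaged in 1,536-well plates, and nuclei stained with an antibody against cleaved PARP were counted against all DNA-stained nuclei to give the apoptosis fraction. Screening doses were chosen to leave most cells alive, and resting and induced cleaved-PARP levels differ strongly between cell lines.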

One assay has as its system MeWo. Briefly: cleaved PARP positive nuclei fraction relative to DMSO control; melanoma cells; higher = more apoptosis. To be noted: library dose: low library concentration; 72 h.
For `O=C(/C=C/c1cccnc1)NCCCCC1CCN(C(=O)c2ccccc2)CC1` + COCC[n+]1c2c(n(Cc3cnccn3)c1C)C(=O)c1ccccc1C2=O [YM155] (first compound 0.01 µM, partner dose 0.0004 µM), the “cleaved PARP positive nuclei fraction” value was determined as 138%.

For the compound `COc1cc([C@@H]2c3cc4c(cc3[C@@H](O[C@@H]3O[C@@H]5CO[C@@H](C)O[C@H]5[C@H](O)[C@H]3O)[C@H]3COC(=O)[C@H]23)OCO4)cc(OC)c1O` [etoposide] + O=c1[nH]nc(Sc2ncc([N+](=O)[O-])s2)n1-c1ccc2c(c1)OCCO2 [BI78D3] (first compound 0.02 µM, partner dose 0.2 µM), the “cleaved PARP positive nuclei fraction” value stood at 71.4%.

For `Cc1cc(Nc2cc(N3CCN(C)CC3)nc(Sc3ccc(NC(=O)C4CC4)cc3)n2)n[nH]1` [Tozasertib] + C[C@@H](Oc1cc(-c2cnn(C3CCNCC3)c2)cnc1N)c1c(Cl)ccc(F)c1Cl [Crizotinib] (first compound 0.006 µM, partner dose 0.2 µM), the “cleaved PARP positive nuclei fraction” value worked out at 224%.

Regarding `O=C(Nc1cc(C(F)(F)F)cc(C(F)(F)F)c1)c1cc(Cl)ccc1O` + COCC[n+]1c2c(n(Cc3cnccn3)c1C)C(=O)c1ccccc1C2=O [YM155] (first compound 0.016 µM, partner dose 0.0004 µM), the “cleaved PARP positive nuclei fraction” value stood at 78%.

Consider `O=c1[nH]nc(Sc2ncc([N+](=O)[O-])s2)n1-c1ccc2c(c1)OCCO2` + CCCCCCCCc1ccc(CCC(N)(CO)CO)cc1 [fingolimod] (first compound 0.2 µM, partner dose 2 µM), for which the “cleaved PARP positive nuclei fraction” value worked out at 40.8%.

A further assay has as its system RPMI7951. The description is as above. The note with it: library dose: low library concentration; 72 h.
With `Cc1cn(-c2cc(NC(=O)c3ccc(C)c(Nc4nccc(-c5cccnc5)n4)c3)cc(C(F)(F)F)c2)cn1` [nilotinib] + NC(=O)c1ccc(N(C(N)=O)c2c(F)cccc2F)nc1-c1ccc(F)cc1F [VX702] (first compound 0.2 µM, partner dose 0.4 µM), the “cleaved PARP positive nuclei fraction” value came out at 67%.

Turning to `CC[C@]1(O)C[C@H]2CN(CCc3c([nH]c4ccccc34)[C@@](C(=O)OC)(c3cc4c(cc3OC)N(C=O)[C@H]3[C@@](O)(C(=O)OC)[C@H](OC(C)=O)[C@]5(CC)C=CCN6CC[C@]43[C@@H]65)C2)C1` [vincristine] + C[C@@H](N)c1ccc(C(=O)Nc2ccnc3[nH]ccc23)cc1 [RKI983] (first compound 0.0001 µM, partner dose 0.4 µM), the “cleaved PARP positive nuclei fraction” value came out at 568%.

Turning to `Cc1cn(-c2cc(NC(=O)c3ccc(C)c(Nc4nccc(-c5cccnc5)n4)c3)cc(C(F)(F)F)c2)cn1` [nilotinib] + CC(C)C[C@H](NC(=O)[C@H](Cc1ccccc1)NC(=O)c1cnccn1)B(O)O [Bortezomib] (first compound 0.2 µM, partner dose 0.001 µM), the “cleaved PARP positive nuclei fraction” value worked out at 190%.

On to `O=C(Nc1cc(C(F)(F)F)cc(C(F)(F)F)c1)c1cc(Cl)ccc1O` + CC(=O)c1c(C)c2cnc(Nc3ccc(N4CCNCC4)cn3)nc2n(C2CCCC2)c1=O [palbociclib] (first compound 0.016 µM, partner dose 0.04 µM), for which the “cleaved PARP positive nuclei fraction” value came to 202%.

For the compound `O=C(Nc1cc(C(F)(F)F)cc(C(F)(F)F)c1)c1cc(Cl)ccc1O` + OCc1c[nH]c2ccccc12 [Indole-3-carbinol] (first compound 0.016 µM, partner dose 0.8 µM), the “cleaved PARP positive nuclei fraction” value came to 125%.

Consider `COc1cc([C@@H]2c3cc4c(cc3[C@@H](O[C@@H]3O[C@@H]5CO[C@@H](C)O[C@H]5[C@H](O)[C@H]3O)[C@H]3COC(=O)[C@H]23)OCO4)cc(OC)c1O` [etoposide] + CS(=O)(=O)CCNCc1ccc(-c2ccc3ncnc(Nc4ccc(OCc5cccc(F)c5)c(Cl)c4)c3c2)o1 [lapatinib] (first compound 0.02 µM, partner dose 0.8 µM), for which the “cleaved PARP positive nuclei fraction” value was found to be 86.2%.

Regarding `CCCCCCCCCCCCCCCCCCOP(=O)([O-])OC1CC[N+](C)(C)CC1` [Perifosine] + NC1(c2ccc(-c3nc4ccn5c(=O)[nH]nc5c4cc3-c3ccccc3)cc2)CCC1 [MK2206] (first compound 0.4 µM, partner dose 0.4 µM), the “cleaved PARP positive nuclei fraction” value amounted to 56.8%.

As to `N#CC[C@H](C1CCCC1)n1cc(-c2ncnc3[nH]ccc23)cn1` [ruxolitinib] + COc1ccc(Cl)c(Nc2nc3ccccc3nc2NS(=O)(=O)c2cccc(NC(=O)C(C)(C)N)c2)c1 [XL147] (first compound 1 µM, partner dose 0.8 µM), the “cleaved PARP positive nuclei fraction” value came out at 36.2%.

`O=C(Nc1cc(C(F)(F)F)cc(C(F)(F)F)c1)c1cc(Cl)ccc1O` + COc1ccc(C2=N[C@@H](c3ccc(Cl)cc3)[C@@H](c3ccc(Cl)cc3)N2C(=O)N2CCNC(=O)C2)c(OC(C)C)c1 [Nutlin-3] (first compound 0.016 µM, partner dose 0.1 µM): the “cleaved PARP positive nuclei fraction” value came out at 38.5%.

With `Cc1cc(Nc2cc(N3CCN(C)CC3)nc(Sc3ccc(NC(=O)C4CC4)cc3)n2)n[nH]1` [Tozasertib] + CC[C@]1(O)C[C@H]2CN(CCc3c([nH]c4ccccc34)[C@@](C(=O)OC)(c3cc4c(cc3OC)N(C=O)[C@H]3[C@@](O)(C(=O)OC)[C@H](OC(C)=O)[C@]5(CC)C=CCN6CC[C@]43[C@@H]65)C2)C1 [vincristine] (first compound 0.006 µM, partner dose 0.0001 µM), the “cleaved PARP positive nuclei fraction” value was 92.8%.

In the case of `CC[C@]1(O)C[C@H]2CN(CCc3c([nH]c4ccccc34)[C@@](C(=O)OC)(c3cc4c(cc3OC)N(C=O)[C@H]3[C@@](O)(C(=O)OC)[C@H](OC(C)=O)[C@]5(CC)C=CCN6CC[C@]43[C@@H]65)C2)C1` [vincristine] + COc1ccc(Cl)c(Nc2nc3ccccc3nc2NS(=O)(=O)c2cccc(NC(=O)C(C)(C)N)c2)c1 [XL147] (first compound 0.0001 µM, partner dose 0.8 µM), the “cleaved PARP positive nuclei fraction” value was 152%.

Regarding `Cc1cn(-c2cc(NC(=O)c3ccc(C)c(Nc4nccc(-c5cccnc5)n4)c3)cc(C(F)(F)F)c2)cn1` [nilotinib] + COc1ccc(Cl)c(Nc2nc3ccccc3nc2NS(=O)(=O)c2cccc(NC(=O)C(C)(C)N)c2)c1 [XL147] (first compound 0.2 µM, partner dose 0.8 µM), the “cleaved PARP positive nuclei fraction” value came to 90.6%.

On to `Cc1cc(Nc2cc(N3CCN(C)CC3)nc(Sc3ccc(NC(=O)C4CC4)cc3)n2)n[nH]1` [Tozasertib] + Nc1nc(F)nc2c1ncn2[C@@H]1O[C@H](CO)[C@@H](O)[C@@H]1O [fludarabine] (first compound 0.006 µM, partner dose 0.2 µM), for which the “cleaved PARP positive nuclei fraction” value stood at 156%.

For `O=C(/C=C/c1cccnc1)NCCCCC1CCN(C(=O)c2ccccc2)CC1` + CCCS(=O)(=O)Nc1ccc(F)c(C(=O)c2c[nH]c3ncc(Cl)cc23)c1F [PLX4720] (first compound 0.01 µM, partner dose 0.08 µM), the “cleaved PARP positive nuclei fraction” value came out at 145%.

For `O=C(/C=C/c1cccnc1)NCCCCC1CCN(C(=O)c2ccccc2)CC1` + CC(=O)c1c(C)c2cnc(Nc3ccc(N4CCNCC4)cn3)nc2n(C2CCCC2)c1=O [palbociclib] (first compound 0.01 µM, partner dose 0.04 µM), the “cleaved PARP positive nuclei fraction” value turned out to be 239%.

As for `CCCCCCCCCCCCCCCCCCOP(=O)([O-])OC1CC[N+](C)(C)CC1` [Perifosine] + CCCCCCCCc1ccc(CCC(N)(CO)CO)cc1 [fingolimod] (first compound 0.4 µM, partner dose 2 µM), the “cleaved PARP positive nuclei fraction” value amounted to 111%.

`CC[C@]1(O)C[C@H]2CN(CCc3c([nH]c4ccccc34)[C@@](C(=O)OC)(c3cc4c(cc3OC)N(C=O)[C@H]3[C@@](O)(C(=O)OC)[C@H](OC(C)=O)[C@]5(CC)C=CCN6CC[C@]43[C@@H]65)C2)C1` [vincristine] + Nc1ncn([C@H]2C[C@H](O)[C@@H](CO)O2)c(=O)n1 [decitabine] (first compound 0.0001 µM, partner dose 0.1 µM): the “cleaved PARP positive nuclei fraction” value is 208%.

In the case of `O=c1[nH]nc(Sc2ncc([N+](=O)[O-])s2)n1-c1ccc2c(c1)OCCO2` + CC1(C)CCC(c2ccc(Cl)cc2)=C(CN2CCN(c3ccc(C(=O)NS(=O)(=O)c4ccc(N[C@H](CCN5CCOCC5)CSc5ccccc5)c(S(=O)(=O)C(F)(F)F)c4)cc3)CC2)C1 [ABT263] (first compound 0.2 µM, partner dose 0.4 µM), the “cleaved PARP positive nuclei fraction” value stood at 136%.

With `O=c1[nH]nc(Sc2ncc([N+](=O)[O-])s2)n1-c1ccc2c(c1)OCCO2` + C=C(c1ccc(C(=O)O)cc1)c1cc2c(cc1C)C(C)(C)CCC2(C)C [Bexarotene] (first compound 0.2 µM, partner dose 2 µM), the “cleaved PARP positive nuclei fraction” value was found to be 57.4%.

As for `CC[C@]1(O)C[C@H]2CN(CCc3c([nH]c4ccccc34)[C@@](C(=O)OC)(c3cc4c(cc3OC)N(C=O)[C@H]3[C@@](O)(C(=O)OC)[C@H](OC(C)=O)[C@]5(CC)C=CCN6CC[C@]43[C@@H]65)C2)C1` [vincristine] + COc1ccc(C2=N[C@@H](c3ccc(Cl)cc3)[C@@H](c3ccc(Cl)cc3)N2C(=O)N2CCNC(=O)C2)c(OC(C)C)c1 [Nutlin-3] (first compound 0.0001 µM, partner dose 0.1 µM), the “cleaved PARP positive nuclei fraction” value came to 119%.

With `COc1cc([C@@H]2c3cc4c(cc3[C@@H](O[C@@H]3O[C@@H]5CO[C@@H](C)O[C@H]5[C@H](O)[C@H]3O)[C@H]3COC(=O)[C@H]23)OCO4)cc(OC)c1O` [etoposide] + C[C@@H](Oc1cc(-c2cnn(C3CCNCC3)c2)cnc1N)c1c(Cl)ccc(F)c1Cl [Crizotinib] (first compound 0.02 µM, partner dose 0.2 µM), the “cleaved PARP positive nuclei fraction” value was 62.8%.

Regarding `CC[C@]1(O)C[C@H]2CN(CCc3c([nH]c4ccccc34)[C@@](C(=O)OC)(c3cc4c(cc3OC)N(C=O)[C@H]3[C@@](O)(C(=O)OC)[C@H](OC(C)=O)[C@]5(CC)C=CCN6CC[C@]43[C@@H]65)C2)C1` [vincristine] + OCc1c[nH]c2ccccc12 [Indole-3-carbinol] (first compound 0.0001 µM, partner dose 0.8 µM), the “cleaved PARP positive nuclei fraction” value was found to be 208%.
